The results in this text go back to PubChem BioAssay AID1347426 (Functional Genomics Laboratory (NCATS/FGL), 2020).

Among all 31,000 sequences or so, about 1,400 (4.5%) were called active.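 Rule for the calls: active = median seed-adjusted z-score above 1 or below -1; inactive = the rest.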 This is one part of the list.

The nature of the assay: Novel Modifiers of Survival Motor Neuron (SMN) Protein: Gene Identification via Genome-wide siRNA Screen.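 Note: luminescence tracks full-length SMN protein made from the SMN2 reporter.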 The note with it: HEK293T SMN2-luciferase reporter, siRNA knockdown, 72 h; actives lie on both sides. In outline: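 Luciferase signal, proportional to full-length SMN made from an SMN2 cDNA reporter in stable HEK293T cells, was read 72 h after siRNA reverse transfection. Values were expressed as MAD scores after non-targeting-control normalization and log10 conversion; seed analysis flagged off-targets.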
Take CAACACCCAUGAGAACUAATT against MGC17403: the median seed-adjusted z-score was inactive: 0.204. The value for GUACGUGUGCGAAACCGAATT against TFAP2A was inactive: -0.384; that for GCAUGUCUUUUGACGUGAATT against ERCC5 was inactive: -0.0811; that for CGCUAAAGCUGCACACUGATT against TRAF3 was inactive: 0.731.

GUGAUUAUAUGGUGAUAUATT against ADRA2B: the median seed-adjusted z-score was inactive: 0.00853. As for GGAGUAACCUGGAUGAGGATT against C3, the median seed-adjusted z-score was inactive: 0.0281. CAGUCUUGCUGCUAUCUAUTT against VIL1: the median seed-adjusted z-score is inactive: 0.368. The value for GCAUUGCAGGUGUGGACAATT against RAPSN was inactive: 0.143.

Turning to GCCUGAAAGUCUCACCCUUTT against KHK, the median seed-adjusted z-score is inactive: 0.

For the sequence GAACUGUCCCAGACCUUAATT against PRDM10, the median seed-adjusted z-score is inactive: 0.344.

As to GGAUCCAGAGCAUGAAUUATT against P2RX7, the median seed-adjusted z-score was inactive: -0.527. The value for ACAGCCGCAUGAACAAGGATT against B3GNT7 was active: -1.05; that for GCACUGAUAUCAACCCUGATT against N6AMT1 was inactive: 0.166. The value for GCACUAAUGAAGACCCUAATT against PBK was inactive: -0.311. The value for CGAAUCAGCAGGUUCCAAATT against CHD2 was inactive: 0.422; that for GCACUGGUCCGCAUCAGUATT against TRIM46 was inactive: 0.034; that for CGUUGGAUCAGACUCUUUUTT against SMYD5 was inactive: -0.217. GCAAGAAGCCGGUAGUCUATT against CTRC: the median seed-adjusted z-score is inactive: -0.104. On to GGACACUACUCUUACCGCATT against TEAD4, for which the median seed-adjusted z-score is inactive: 0.0908. The value for CACCUUACCUCAAUAUCUATT against PTPDC1 was inactive: -0.191; that for GGUAAAGUCCAGUUCGUGATT against GRM7 was inactive: 0.389; that for GCAUCGAAGGGAUCUAUAATT against CACNG4 was inactive: -0.0702. The value for GUACCAGUCUAGCGCAAUATT against BMX was inactive: -0.00712. On to GGUUCACGGAGAGUCAGAATT against PER2, for which the median seed-adjusted z-score was inactive: -0.113. Consider AGAAUUUAAAGAUCCACAATT against ZIC1, for which the median seed-adjusted z-score is inactive: 0.162. ACAUCACCAUGACAGAUUUTT against PNMT: the median seed-adjusted z-score is inactive: -0.559.

CAAUGUGCGUGAGAAGUCATT against EPN2: the median seed-adjusted z-score was inactive: -0.00173. In the case of GCUGCAGGUUGUAAAUAGUTT against CCNO, the median seed-adjusted z-score is inactive: -0.594. The value for UCCCGUUCCGUACGACUUATT against DHRS7C was inactive: -0.398.

For the sequence GUAUAGAUCUCUAUUUCUATT against COPZ1, the median seed-adjusted z-score was active: -1.02.
